# Experimental data as given in the supplement of paper PMC5355238.
# Counter-ions that a name gives are not always drawn. The list shows a part of the results. Most values lie at the level of the controls, where differences are scatter.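 Using flow cytometry, the assay measures the median γH2AX antibody signal in S-phase Reh cells (a human leukemia line). Each score is the number of standard deviations from the median difference of paired plate sets. Candidate hits scored above 2.5; compounds scoring below -2 lowered MK1775-induced damage.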
# System: Reh
# Experiment: Z' of S-phase gammaH2AX difference (drug + MK1775 minus drug alone) (Z-score); higher = stronger synergistic S-phase DNA damage with MK1775
# Settings: MK1775 concentration 400 nM; first compound 10 µM; 4 h
row,Structure (SMILES),Z' of S-phase gammaH2AX difference (Z-score)
1,Oc1ccc(-c2nc(-c3ccc(F)cc3)c(-c3ccncc3)[nH]2)cc1 + C=CCn1c(=O)c2cnc(Nc3ccc(N4CCN(C)CC4)cc3)nc2n1-c1cccc(C(C)(C)O)n1 [MK1775],inactive: -0.0134
2,O=C(O)c1ccc2cc(-c3ccc(O)c(C45CC6CC(CC(C6)C4)C5)c3)ccc2c1 + C=CCn1c(=O)c2cnc(Nc3ccc(N4CCN(C)CC4)cc3)nc2n1-c1cccc(C(C)(C)O)n1 [MK1775],active: 7.31
3,NC(=O)c1cnccn1 [Pyrazinecarboxamide] + C=CCn1c(=O)c2cnc(Nc3ccc(N4CCN(C)CC4)cc3)nc2n1-c1cccc(C(C)(C)O)n1 [MK1775],inactive: -0.146
4,Nc1nc(N)c(N=O)c(OCC2CCCCC2)n1 + C=CCn1c(=O)c2cnc(Nc3ccc(N4CCN(C)CC4)cc3)nc2n1-c1cccc(C(C)(C)O)n1 [MK1775],inactive: 0.348
5,O=C(CCNNC(=O)c1ccncc1)NCc1ccccc1 [Nialamide] + C=CCn1c(=O)c2cnc(Nc3ccc(N4CCN(C)CC4)cc3)nc2n1-c1cccc(C(C)(C)O)n1 [MK1775],inactive: -0.175
6,N/C(=N\C(=O)c1nc(Cl)c(N)nc1N)NCc1ccccc1 [Benzamil hydrochloride] + C=CCn1c(=O)c2cnc(Nc3ccc(N4CCN(C)CC4)cc3)nc2n1-c1cccc(C(C)(C)O)n1 [MK1775],inactive: -0.611
7,"CCCn1c(=O)c2[nH]c(C3CCCC3)nc2n(CCC)c1=O [8-Cyclopentyl-1,3-dipropylxanthine] + C=CCn1c(=O)c2cnc(Nc3ccc(N4CCN(C)CC4)cc3)nc2n1-c1cccc(C(C)(C)O)n1 [MK1775]",inactive: 0.608
8,Nc1ccc(-c2ccc3ncc4ccc(=O)n(-c5cccc(C(F)(F)F)c5)c4c3c2)cn1 [Torin 2] + C=CCn1c(=O)c2cnc(Nc3ccc(N4CCN(C)CC4)cc3)nc2n1-c1cccc(C(C)(C)O)n1 [MK1775],inactive: -1.15
9,CCC(=O)c1ccc2c(c1)N(CCCN(C)C)c1ccccc1S2 [Propionylpromazine hydrochloride] + C=CCn1c(=O)c2cnc(Nc3ccc(N4CCN(C)CC4)cc3)nc2n1-c1cccc(C(C)(C)O)n1 [MK1775],inactive: 0.359
10,Cc1nc2ccccn2c(=O)c1CCN1CCC(C(=O)c2ccc(F)cc2)CC1 [Pirenperone] + C=CCn1c(=O)c2cnc(Nc3ccc(N4CCN(C)CC4)cc3)nc2n1-c1cccc(C(C)(C)O)n1 [MK1775],inactive: -0.15
11,COc1cccc2c1C(=O)c1c(O)c3c(c(O)c1C2=O)C[C@@](O)(C(=O)CO)C[C@@H]3O[C@H]1C[C@H](N)[C@@H](O)[C@H](C)O1 [Epirubicin Hydrochloride] + C=CCn1c(=O)c2cnc(Nc3ccc(N4CCN(C)CC4)cc3)nc2n1-c1cccc(C(C)(C)O)n1 [MK1775],inactive: -0.2
12,CCCN(CCC)CCc1cccc2c1CC(=O)N2 [Ropinirole hydrochloride] + C=CCn1c(=O)c2cnc(Nc3ccc(N4CCN(C)CC4)cc3)nc2n1-c1cccc(C(C)(C)O)n1 [MK1775],inactive: -0.592
13,N=C(N)c1ccc(N)cc1 [4-Aminobenzamidine dihydrochloride] + C=CCn1c(=O)c2cnc(Nc3ccc(N4CCN(C)CC4)cc3)nc2n1-c1cccc(C(C)(C)O)n1 [MK1775],inactive: -0.337
14,CC(=O)O[C@H]1C(=O)[C@@]2(C)[C@H]([C@H](OC(=O)c3ccccc3)[C@]3(O)C[C@H](OC(=O)[C@H](O)[C@@H](NC(=O)c4ccccc4)c4ccccc4)C(C)=C1C3(C)C)[C@]1(OC(C)=O)CO[C@@H]1C[C@@H]2O [Paclitaxel (Taxol)] + C=CCn1c(=O)c2cnc(Nc3ccc(N4CCN(C)CC4)cc3)nc2n1-c1cccc(C(C)(C)O)n1 [MK1775],inactive: 0.0761
15,CC(=O)O[C@H]1C(=O)[C@@]2(C)[C@H]([C@H](OC(=O)c3ccccc3)[C@]3(O)C[C@H](OC(=O)[C@H](O)[C@@H](NC(=O)c4ccccc4)c4ccccc4)C(C)=C1C3(C)C)[C@]1(OC(C)=O)CO[C@@H]1C[C@@H]2O [Taxol] + C=CCn1c(=O)c2cnc(Nc3ccc(N4CCN(C)CC4)cc3)nc2n1-c1cccc(C(C)(C)O)n1 [MK1775],inactive: -0.334
16,"O=Nc1ccc2oc(=O)ccc2c1 [6-Nitroso-1,2-benzopyrone] + C=CCn1c(=O)c2cnc(Nc3ccc(N4CCN(C)CC4)cc3)nc2n1-c1cccc(C(C)(C)O)n1 [MK1775]",inactive: -0.0728
17,CC(=O)c1c(C)c2cnc(Nc3ccc(N4CCNCC4)cn3)nc2n(C2CCCC2)c1=O + C=CCn1c(=O)c2cnc(Nc3ccc(N4CCN(C)CC4)cc3)nc2n1-c1cccc(C(C)(C)O)n1 [MK1775],inactive: -0.462
18,CC(C)(C)c1ccc(S(=O)(=O)/C=C/C#N)cc1 + C=CCn1c(=O)c2cnc(Nc3ccc(N4CCN(C)CC4)cc3)nc2n1-c1cccc(C(C)(C)O)n1 [MK1775],inactive: -4.03

row,Structure (SMILES),Z' of S-phase gammaH2AX difference (Z-score)
1,C[C@@H](O[C@H]1OCCN(Cc2n[nH]c(=O)[nH]2)[C@H]1c1ccc(F)cc1)c1cc(C(F)(F)F)cc(C(F)(F)F)c1 [Aprepitant (MK-0869)] + C=CCn1c(=O)c2cnc(Nc3ccc(N4CCN(C)CC4)cc3)nc2n1-c1cccc(C(C)(C)O)n1 [MK1775],inactive: 0.489
2,Cc1cn(-c2cc(NC(=O)c3ccc(C)c(Nc4nccc(-c5cccnc5)n4)c3)cc(C(F)(F)F)c2)cn1 [Nilotinib (AMN-107)] + C=CCn1c(=O)c2cnc(Nc3ccc(N4CCN(C)CC4)cc3)nc2n1-c1cccc(C(C)(C)O)n1 [MK1775],inactive: -0.397
3,NC(=O)c1ccc(-c2nc(-c3ccccn3)c(-c3ccc4c(c3)OCO4)[nH]2)cc1 + C=CCn1c(=O)c2cnc(Nc3ccc(N4CCN(C)CC4)cc3)nc2n1-c1cccc(C(C)(C)O)n1 [MK1775],inactive: 0.147
4,"O=C(O)c1cc(=O)c2c(Cl)cc(Cl)cc2[nH]1 [5,7-Dichlorokynurenic acid] + C=CCn1c(=O)c2cnc(Nc3ccc(N4CCN(C)CC4)cc3)nc2n1-c1cccc(C(C)(C)O)n1 [MK1775]",inactive: 0.775
5,COc1cc2c(NC3CCN(C)CC3)nc(N3CCCN(C)CC3)nc2cc1OCCCN(C)C + C=CCn1c(=O)c2cnc(Nc3ccc(N4CCN(C)CC4)cc3)nc2n1-c1cccc(C(C)(C)O)n1 [MK1775],inactive: 0.498
6,CCn1c(-c2nonc2N)nc2c(C#CC(C)(C)O)ncc(OC[C@H]3CCCNC3)c21 + C=CCn1c(=O)c2cnc(Nc3ccc(N4CCN(C)CC4)cc3)nc2n1-c1cccc(C(C)(C)O)n1 [MK1775],inactive: -0.534
7,NC(=O)CC[C@H](N)C(=O)O [L-Glutamine] + C=CCn1c(=O)c2cnc(Nc3ccc(N4CCN(C)CC4)cc3)nc2n1-c1cccc(C(C)(C)O)n1 [MK1775],inactive: 0.0267
8,CCN(CC)CCOc1ccc(Nc2ncc3cc(-c4c(Cl)cccc4Cl)c(=O)n(C)c3n2)cc1 + C=CCn1c(=O)c2cnc(Nc3ccc(N4CCN(C)CC4)cc3)nc2n1-c1cccc(C(C)(C)O)n1 [MK1775],inactive: -0.608
9,CN1C(=O)C(Cc2c[nH]c3ccccc23)NC1=S (stereo not given) [Necrostatin-1] + C=CCn1c(=O)c2cnc(Nc3ccc(N4CCN(C)CC4)cc3)nc2n1-c1cccc(C(C)(C)O)n1 [MK1775],inactive: 0.0392
10,CC(C)OC(=O)C(C)(C)Oc1ccc(C(=O)c2ccc(Cl)cc2)cc1 [Fenofibrate] + C=CCn1c(=O)c2cnc(Nc3ccc(N4CCN(C)CC4)cc3)nc2n1-c1cccc(C(C)(C)O)n1 [MK1775],inactive: -0.357
11,COc1cc2ncnc(-n3nc(-c4ccccn4)nc3N)c2cc1OC + C=CCn1c(=O)c2cnc(Nc3ccc(N4CCN(C)CC4)cc3)nc2n1-c1cccc(C(C)(C)O)n1 [MK1775],inactive: -0.211
12,NCCCCNS(=O)(=O)c1ccc2c(Cl)cccc2c1 + C=CCn1c(=O)c2cnc(Nc3ccc(N4CCN(C)CC4)cc3)nc2n1-c1cccc(C(C)(C)O)n1 [MK1775],inactive: -0.02
13,CCOC(=O)c1cnc2c(cnn2CC)c1NN=C(C)C [Etazolate hydrochloride] + C=CCn1c(=O)c2cnc(Nc3ccc(N4CCN(C)CC4)cc3)nc2n1-c1cccc(C(C)(C)O)n1 [MK1775],inactive: 1.13
14,COc1cc2ncnc(Nc3cccc(Cl)c3)c2cc1OC [Tyrphostin AG 1478] + C=CCn1c(=O)c2cnc(Nc3ccc(N4CCN(C)CC4)cc3)nc2n1-c1cccc(C(C)(C)O)n1 [MK1775],inactive: 0.0168
15,CC1CCN=C(N)S1 (stereo not given) [(?)-AMT hydrochloride] + C=CCn1c(=O)c2cnc(Nc3ccc(N4CCN(C)CC4)cc3)nc2n1-c1cccc(C(C)(C)O)n1 [MK1775],inactive: -0.0635
16,N#C/C(=C\c1ccc(O)c(O)c1)C(=O)NCCCc1ccccc1 [Tyrphostin AG 555] + C=CCn1c(=O)c2cnc(Nc3ccc(N4CCN(C)CC4)cc3)nc2n1-c1cccc(C(C)(C)O)n1 [MK1775],inactive: -0.207
17,COc1ccc(C2=N[C@@H](c3ccc(Cl)cc3)[C@@H](c3ccc(Cl)cc3)N2C(=O)N2CCNC(=O)C2)c(OC(C)C)c1 [Nutlin-3] + C=CCn1c(=O)c2cnc(Nc3ccc(N4CCN(C)CC4)cc3)nc2n1-c1cccc(C(C)(C)O)n1 [MK1775],inactive: -0.132

# Some of the entries so far, bar-delimited:
row | Structure (SMILES) | Z' of S-phase gammaH2AX difference (Z-score)
2 | Cc1cn(-c2cc(NC(=O)c3ccc(C)c(Nc4nccc(-c5cccnc5)n4)c3)cc(C(F)(F)F)c2)cn1 [Nilotinib (AMN-107)] + C=CCn1c(=O)c2cnc(Nc3ccc(N4CCN(C)CC4)cc3)nc2n1-c1cccc(C(C)(C)O)n1 [MK1775] | inactive: -0.397
3 | NC(=O)c1ccc(-c2nc(-c3ccccn3)c(-c3ccc4c(c3)OCO4)[nH]2)cc1 + C=CCn1c(=O)c2cnc(Nc3ccc(N4CCN(C)CC4)cc3)nc2n1-c1cccc(C(C)(C)O)n1 [MK1775] | inactive: 0.147
4 | O=C(O)c1cc(=O)c2c(Cl)cc(Cl)cc2[nH]1 [5,7-Dichlorokynurenic acid] + C=CCn1c(=O)c2cnc(Nc3ccc(N4CCN(C)CC4)cc3)nc2n1-c1cccc(C(C)(C)O)n1 [MK1775] | inactive: 0.775
5 | COc1cc2c(NC3CCN(C)CC3)nc(N3CCCN(C)CC3)nc2cc1OCCCN(C)C + C=CCn1c(=O)c2cnc(Nc3ccc(N4CCN(C)CC4)cc3)nc2n1-c1cccc(C(C)(C)O)n1 [MK1775] | inactive: 0.498
6 | CCn1c(-c2nonc2N)nc2c(C#CC(C)(C)O)ncc(OC[C@H]3CCCNC3)c21 + C=CCn1c(=O)c2cnc(Nc3ccc(N4CCN(C)CC4)cc3)nc2n1-c1cccc(C(C)(C)O)n1 [MK1775] | inactive: -0.534
7 | NC(=O)CC[C@H](N)C(=O)O [L-Glutamine] + C=CCn1c(=O)c2cnc(Nc3ccc(N4CCN(C)CC4)cc3)nc2n1-c1cccc(C(C)(C)O)n1 [MK1775] | inactive: 0.0267
8 | CCN(CC)CCOc1ccc(Nc2ncc3cc(-c4c(Cl)cccc4Cl)c(=O)n(C)c3n2)cc1 + C=CCn1c(=O)c2cnc(Nc3ccc(N4CCN(C)CC4)cc3)nc2n1-c1cccc(C(C)(C)O)n1 [MK1775] | inactive: -0.608
9 | CN1C(=O)C(Cc2c[nH]c3ccccc23)NC1=S (stereo not given) [Necrostatin-1] + C=CCn1c(=O)c2cnc(Nc3ccc(N4CCN(C)CC4)cc3)nc2n1-c1cccc(C(C)(C)O)n1 [MK1775] | inactive: 0.0392
10 | CC(C)OC(=O)C(C)(C)Oc1ccc(C(=O)c2ccc(Cl)cc2)cc1 [Fenofibrate] + C=CCn1c(=O)c2cnc(Nc3ccc(N4CCN(C)CC4)cc3)nc2n1-c1cccc(C(C)(C)O)n1 [MK1775] | inactive: -0.357
